Here are results for 1 sequence from paper PMC8420766, “Crystal structure of a MarR family protein from the psychrophilic bacterium Paenisporosarcina sp. TG-14 in complex with a lipid-like molecule” (IUCrJ, 2021).

The target in this data set is T1, PaMarR (Paenisporosarcina sp. TG-14) (UniProt A0A8J9SKQ8).
T1 sequence (looked up, limits assumed): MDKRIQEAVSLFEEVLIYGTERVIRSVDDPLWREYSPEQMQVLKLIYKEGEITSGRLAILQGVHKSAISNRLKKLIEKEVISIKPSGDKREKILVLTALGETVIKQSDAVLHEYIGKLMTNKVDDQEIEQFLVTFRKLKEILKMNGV
Nature of the data set: EMSA. The note with it: randomization significantly disrupted binding, protein contains palmitate; EMSA: Dulbecco's PBS, 12% (v/v) glycerol, 0.5 uM duplex, 15 min at 37 C, 20 ul; 8% native PAGE with 5% glycerol in Tris-borate; pH not stated; recombinant protein; label: none (GelRed stain). (In general: A gel shift assay detects complexes by their altered migration in electrophoresis.)

For at least one entry, the source does not settle the construct or the ends of the probe. The comparison behind a weaker result is the experiment's own reference, which may not be listed here. Protein sequences can lack the tags named with them.

Take “TGTCACTAATGCACTCCATAGACGACCATCAGTAGTCTAGTAGATTAGATAGTCTACCCCCTAG / ACTATCTAATCTACTAGACTACTGATGGTCGTCTATGGAGTGCATTAGTGACA [Non-specific palindrome probe (randomized)]”: the binding result is “binds more weakly”.
